Results from publication doi:10.1101/2025.02.20.639268.
Results are given in words; binding and its absence hold for the method and conditions named. Some entries that bind do so weakly or less than the wild type.

By UniProt entry, the sequences of proteins in these tests, tags left out. Where a name states a change or a piece, a line headed by the entry shows the natural chain unless it says otherwise. Chains listed by the source or under a name are the forms on record and can include a tag or linker. Residues count along the entry.
full-length mouse NOTCH1 Myc, wild type, on HEK293T cells (Q01705, residues 19-2531): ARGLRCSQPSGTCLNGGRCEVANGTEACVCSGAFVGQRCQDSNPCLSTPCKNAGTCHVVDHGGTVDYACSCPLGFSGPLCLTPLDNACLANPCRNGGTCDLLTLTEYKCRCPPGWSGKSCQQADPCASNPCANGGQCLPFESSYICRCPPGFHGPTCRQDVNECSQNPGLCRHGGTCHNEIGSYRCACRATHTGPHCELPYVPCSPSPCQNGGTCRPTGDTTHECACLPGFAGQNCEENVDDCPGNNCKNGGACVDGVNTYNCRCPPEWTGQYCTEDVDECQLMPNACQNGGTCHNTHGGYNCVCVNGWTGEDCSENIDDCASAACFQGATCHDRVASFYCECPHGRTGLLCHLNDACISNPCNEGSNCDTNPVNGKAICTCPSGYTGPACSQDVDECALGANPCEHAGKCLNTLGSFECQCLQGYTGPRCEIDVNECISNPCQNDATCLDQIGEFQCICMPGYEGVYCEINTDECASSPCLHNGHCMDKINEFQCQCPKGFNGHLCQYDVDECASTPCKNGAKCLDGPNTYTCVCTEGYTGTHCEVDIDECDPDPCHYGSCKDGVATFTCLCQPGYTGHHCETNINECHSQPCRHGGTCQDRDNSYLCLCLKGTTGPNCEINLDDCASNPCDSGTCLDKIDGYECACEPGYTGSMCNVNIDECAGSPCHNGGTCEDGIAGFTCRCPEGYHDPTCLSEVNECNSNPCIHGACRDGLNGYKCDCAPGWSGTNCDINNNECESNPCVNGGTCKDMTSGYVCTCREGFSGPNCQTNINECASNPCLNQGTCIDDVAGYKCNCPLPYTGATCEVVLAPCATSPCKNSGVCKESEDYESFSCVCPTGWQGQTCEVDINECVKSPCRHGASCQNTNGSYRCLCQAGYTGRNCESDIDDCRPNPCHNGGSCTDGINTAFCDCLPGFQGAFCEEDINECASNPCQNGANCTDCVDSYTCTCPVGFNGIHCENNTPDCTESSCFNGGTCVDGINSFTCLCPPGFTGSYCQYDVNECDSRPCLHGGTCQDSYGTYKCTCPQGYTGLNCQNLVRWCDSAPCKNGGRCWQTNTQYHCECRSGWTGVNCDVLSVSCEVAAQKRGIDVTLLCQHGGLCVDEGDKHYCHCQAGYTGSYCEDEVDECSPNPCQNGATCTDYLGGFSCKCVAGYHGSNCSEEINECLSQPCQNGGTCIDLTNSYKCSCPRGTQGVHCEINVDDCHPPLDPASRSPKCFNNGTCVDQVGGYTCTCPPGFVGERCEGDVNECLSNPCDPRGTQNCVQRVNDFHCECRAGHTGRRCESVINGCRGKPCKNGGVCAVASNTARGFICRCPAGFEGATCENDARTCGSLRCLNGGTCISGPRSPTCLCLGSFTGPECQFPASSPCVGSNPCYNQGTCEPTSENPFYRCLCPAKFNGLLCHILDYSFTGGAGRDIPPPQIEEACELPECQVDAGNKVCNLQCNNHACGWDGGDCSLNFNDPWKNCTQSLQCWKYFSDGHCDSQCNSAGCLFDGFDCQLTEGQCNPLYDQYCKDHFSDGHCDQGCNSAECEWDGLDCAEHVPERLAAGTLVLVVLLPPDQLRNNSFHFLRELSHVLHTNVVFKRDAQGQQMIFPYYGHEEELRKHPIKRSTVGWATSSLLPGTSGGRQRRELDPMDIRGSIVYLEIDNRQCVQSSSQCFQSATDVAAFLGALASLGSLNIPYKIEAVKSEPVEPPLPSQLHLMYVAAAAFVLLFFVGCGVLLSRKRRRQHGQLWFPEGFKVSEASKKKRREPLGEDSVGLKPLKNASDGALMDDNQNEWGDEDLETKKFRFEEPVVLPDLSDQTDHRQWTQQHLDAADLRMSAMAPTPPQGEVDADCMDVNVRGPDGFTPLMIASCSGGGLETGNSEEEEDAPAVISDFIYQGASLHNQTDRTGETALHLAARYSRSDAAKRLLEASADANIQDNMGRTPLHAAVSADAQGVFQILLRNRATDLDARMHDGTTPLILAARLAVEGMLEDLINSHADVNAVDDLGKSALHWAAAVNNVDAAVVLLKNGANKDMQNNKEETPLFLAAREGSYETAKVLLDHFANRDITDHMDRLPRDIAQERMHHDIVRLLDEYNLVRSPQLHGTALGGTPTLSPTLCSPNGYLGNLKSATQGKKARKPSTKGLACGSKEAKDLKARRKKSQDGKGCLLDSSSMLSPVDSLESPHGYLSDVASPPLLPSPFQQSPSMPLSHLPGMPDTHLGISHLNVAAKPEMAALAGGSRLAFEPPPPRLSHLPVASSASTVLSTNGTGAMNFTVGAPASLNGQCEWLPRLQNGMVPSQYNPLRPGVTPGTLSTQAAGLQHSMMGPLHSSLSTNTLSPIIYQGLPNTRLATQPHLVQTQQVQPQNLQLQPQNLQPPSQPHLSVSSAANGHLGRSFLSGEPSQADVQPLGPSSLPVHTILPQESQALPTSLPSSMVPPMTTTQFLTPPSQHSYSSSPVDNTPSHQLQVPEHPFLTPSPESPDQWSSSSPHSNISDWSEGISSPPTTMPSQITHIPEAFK
full-length mouse NOTCH1 Myc A396Y mutant, on HEK293T cells (Q01705, form named): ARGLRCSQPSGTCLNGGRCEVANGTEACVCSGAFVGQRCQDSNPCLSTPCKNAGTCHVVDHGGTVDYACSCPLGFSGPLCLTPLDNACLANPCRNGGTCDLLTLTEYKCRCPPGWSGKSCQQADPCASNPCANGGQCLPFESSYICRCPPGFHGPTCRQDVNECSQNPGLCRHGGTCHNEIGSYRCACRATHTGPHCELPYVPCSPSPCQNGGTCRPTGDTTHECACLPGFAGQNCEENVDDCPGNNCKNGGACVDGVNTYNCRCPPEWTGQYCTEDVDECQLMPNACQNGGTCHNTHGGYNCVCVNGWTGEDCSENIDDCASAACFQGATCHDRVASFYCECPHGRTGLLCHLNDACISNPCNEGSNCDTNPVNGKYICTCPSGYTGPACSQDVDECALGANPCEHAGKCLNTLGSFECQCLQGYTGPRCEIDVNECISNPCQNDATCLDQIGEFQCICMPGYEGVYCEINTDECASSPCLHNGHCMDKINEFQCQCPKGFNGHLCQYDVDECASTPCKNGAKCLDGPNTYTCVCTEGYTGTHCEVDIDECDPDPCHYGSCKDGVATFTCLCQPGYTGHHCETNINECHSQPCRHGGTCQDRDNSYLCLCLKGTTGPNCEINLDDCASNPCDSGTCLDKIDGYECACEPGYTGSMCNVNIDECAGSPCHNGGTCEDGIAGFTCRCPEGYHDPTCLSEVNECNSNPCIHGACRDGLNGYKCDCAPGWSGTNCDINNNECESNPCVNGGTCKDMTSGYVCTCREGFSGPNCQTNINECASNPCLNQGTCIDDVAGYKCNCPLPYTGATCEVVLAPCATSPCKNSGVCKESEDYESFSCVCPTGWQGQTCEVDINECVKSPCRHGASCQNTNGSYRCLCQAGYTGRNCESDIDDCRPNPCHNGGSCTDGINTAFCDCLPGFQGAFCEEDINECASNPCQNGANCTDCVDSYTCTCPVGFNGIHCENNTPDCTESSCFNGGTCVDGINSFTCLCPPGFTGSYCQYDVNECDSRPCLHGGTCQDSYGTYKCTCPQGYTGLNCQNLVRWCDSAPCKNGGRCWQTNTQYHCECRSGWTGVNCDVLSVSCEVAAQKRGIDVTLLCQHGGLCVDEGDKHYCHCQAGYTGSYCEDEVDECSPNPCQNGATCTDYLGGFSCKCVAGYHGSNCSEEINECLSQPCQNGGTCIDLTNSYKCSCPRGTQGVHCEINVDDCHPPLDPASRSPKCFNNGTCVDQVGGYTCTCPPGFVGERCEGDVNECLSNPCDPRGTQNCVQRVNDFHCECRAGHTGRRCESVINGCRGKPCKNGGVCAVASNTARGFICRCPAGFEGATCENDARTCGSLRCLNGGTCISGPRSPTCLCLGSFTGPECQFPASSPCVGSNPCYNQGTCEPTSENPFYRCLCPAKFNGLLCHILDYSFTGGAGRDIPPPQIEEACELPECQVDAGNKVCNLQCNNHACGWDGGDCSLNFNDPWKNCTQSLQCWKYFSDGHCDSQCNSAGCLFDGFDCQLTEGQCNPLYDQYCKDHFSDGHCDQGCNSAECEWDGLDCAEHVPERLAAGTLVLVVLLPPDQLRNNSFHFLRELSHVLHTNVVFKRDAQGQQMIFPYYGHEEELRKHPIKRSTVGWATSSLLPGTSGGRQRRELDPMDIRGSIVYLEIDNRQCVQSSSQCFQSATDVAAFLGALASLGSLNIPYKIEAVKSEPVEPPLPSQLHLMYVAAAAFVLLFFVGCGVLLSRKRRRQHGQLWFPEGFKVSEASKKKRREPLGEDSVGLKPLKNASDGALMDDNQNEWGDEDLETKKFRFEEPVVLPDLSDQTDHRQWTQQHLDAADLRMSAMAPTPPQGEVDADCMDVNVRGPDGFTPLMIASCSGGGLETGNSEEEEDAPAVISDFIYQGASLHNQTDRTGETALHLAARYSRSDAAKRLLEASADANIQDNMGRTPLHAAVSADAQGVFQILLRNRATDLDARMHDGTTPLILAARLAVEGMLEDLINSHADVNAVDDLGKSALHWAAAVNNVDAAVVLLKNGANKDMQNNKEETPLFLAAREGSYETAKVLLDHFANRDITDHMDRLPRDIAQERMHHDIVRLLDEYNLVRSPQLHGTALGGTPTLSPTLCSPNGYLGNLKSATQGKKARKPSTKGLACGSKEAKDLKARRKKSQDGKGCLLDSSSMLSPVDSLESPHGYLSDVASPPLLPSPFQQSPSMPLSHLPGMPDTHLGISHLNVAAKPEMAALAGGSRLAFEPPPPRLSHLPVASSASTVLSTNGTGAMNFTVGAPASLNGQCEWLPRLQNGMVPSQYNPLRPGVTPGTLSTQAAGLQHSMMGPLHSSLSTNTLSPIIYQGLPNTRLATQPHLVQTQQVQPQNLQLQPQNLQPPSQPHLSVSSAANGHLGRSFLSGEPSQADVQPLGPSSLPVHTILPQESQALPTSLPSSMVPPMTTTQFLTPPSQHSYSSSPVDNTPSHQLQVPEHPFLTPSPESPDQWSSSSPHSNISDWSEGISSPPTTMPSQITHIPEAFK
UniProt Q9NR61, residues 27-529: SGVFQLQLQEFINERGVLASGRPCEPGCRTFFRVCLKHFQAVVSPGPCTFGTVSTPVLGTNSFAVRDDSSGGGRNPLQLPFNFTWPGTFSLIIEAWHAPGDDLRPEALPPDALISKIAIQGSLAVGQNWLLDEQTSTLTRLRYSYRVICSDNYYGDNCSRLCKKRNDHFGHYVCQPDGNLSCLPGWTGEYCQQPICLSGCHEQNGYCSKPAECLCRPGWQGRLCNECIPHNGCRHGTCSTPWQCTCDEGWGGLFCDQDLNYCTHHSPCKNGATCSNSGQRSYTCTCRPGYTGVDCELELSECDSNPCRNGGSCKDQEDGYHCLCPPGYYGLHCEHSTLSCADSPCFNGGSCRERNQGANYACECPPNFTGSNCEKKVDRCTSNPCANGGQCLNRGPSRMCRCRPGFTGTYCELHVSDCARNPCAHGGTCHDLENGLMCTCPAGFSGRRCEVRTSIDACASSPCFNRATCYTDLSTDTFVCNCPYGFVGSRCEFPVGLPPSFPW
UniProt P97677, residues 18-537: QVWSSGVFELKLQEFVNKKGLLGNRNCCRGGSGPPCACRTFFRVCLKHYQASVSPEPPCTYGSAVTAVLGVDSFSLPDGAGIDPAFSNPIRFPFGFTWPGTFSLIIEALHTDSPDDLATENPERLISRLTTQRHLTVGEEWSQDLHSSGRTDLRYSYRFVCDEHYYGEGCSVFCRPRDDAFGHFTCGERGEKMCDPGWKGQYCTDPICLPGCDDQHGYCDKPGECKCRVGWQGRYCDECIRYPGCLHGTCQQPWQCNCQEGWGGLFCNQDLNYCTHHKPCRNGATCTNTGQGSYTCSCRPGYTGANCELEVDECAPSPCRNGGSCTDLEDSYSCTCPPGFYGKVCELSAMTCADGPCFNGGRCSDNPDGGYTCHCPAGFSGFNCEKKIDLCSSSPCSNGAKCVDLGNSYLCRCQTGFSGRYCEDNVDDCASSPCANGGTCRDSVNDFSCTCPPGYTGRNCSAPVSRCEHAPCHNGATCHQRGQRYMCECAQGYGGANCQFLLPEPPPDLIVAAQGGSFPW

Tests used:
Test in all cases: flow cytometry on cells
[1] = target: full-length mouse NOTCH1 Myc A396Y mutant, on HEK293T cells (mouse) (UniProt Q01705)
[2] = target: full-length mouse NOTCH1 Myc, wild type, on HEK293T cells (mouse) (UniProt Q01705)
[3] = target: full-length mouse NOTCH1 Myc A396F mutant, on HEK293T cells (mouse) (UniProt Q01705)

| binding [1] | binding [2] | binding [3] | Substance |
| --- | --- | --- | --- |
| binds | binds | binds | human DLL4-Fc (from UniProt Q9NR61) (Fc fusion) |
| binds | binds | binds | Rat DLL1-Fc (from UniProt P97677) (Fc fusion) |
| – | binds | – | human JAG1-Fc (from UniProt P78504) (Fc fusion) |
